In the supplement of paper PMC7661543:
± gives the standard deviation of the averaged measurements. The effect of the compound repeats well; differences between the knockouts mostly do not.

Tested on: MDA-MB-231
Experiment: relative cell number vs DMSO control (72 h) (% of DMSO); higher = less growth inhibition (more cells)
Method: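 QMAP-Seq: a pool of 5 breast cancer cell lines (ZR-75-1, SKBR3, HCC-38, MDA-MB-231, BT-20), each carrying 12 doxycycline-inducible Cas9 sgRNA perturbations (11 knockouts plus non-targeting sgNT), was treated with compounds for 72 h at four 10-fold doses (10 nM-10 uM or 1 nM-1 uM range). Barcodes were amplified and sequenced, and cell number was interpolated from 293T spike-in standard curves. The result is expressed as % of the median of DMSO wells. Two biological replicates.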

O=P1(NCCCl)OCCCN1CCCl (configuration not stated) [Ifosfamide]
Conditions | relative cell number
sgRNA knockout: sgATF3, 10 nM | 88.3 ± 38
sgRNA knockout: sgATF3, 100 nM | 91.7 ± 5.1
sgRNA knockout: sgATF3, 1000 nM | 108 ± 7.4
sgRNA knockout: sgATF3, 10000 nM | 87.2 ± 20
sgRNA knockout: sgATF4, 10 nM | 111.2 ± 1
sgRNA knockout: sgATF4, 100 nM | 84.5 ± 13
sgRNA knockout: sgATF4, 1000 nM | 116 ± 13
sgRNA knockout: sgATF4, 10000 nM | 120 ± 32
sgRNA knockout: sgATF6, 10 nM | 99 ± 24
sgRNA knockout: sgATF6, 100 nM | 94.5 ± 11
sgRNA knockout: sgATF6, 1000 nM | 123 ± 23
sgRNA knockout: sgATF6, 10000 nM | 104 ± 9.6
sgRNA knockout: sgATG7, 10 nM | 86.5 ± 6.1
sgRNA knockout: sgATG7, 100 nM | 84.7 ± 5.1
sgRNA knockout: sgATG7, 1000 nM | 81.4 ± 13
sgRNA knockout: sgATG7, 10000 nM | 102 ± 19
sgRNA knockout: sgERN1, 10 nM | 91.5 ± 37
sgRNA knockout: sgERN1, 100 nM | 78.8 ± 3.2
sgRNA knockout: sgERN1, 1000 nM | 119 ± 26
sgRNA knockout: sgERN1, 10000 nM | 111 ± 42
sgRNA knockout: sgHSF1, 10 nM | 94.5 ± 32
sgRNA knockout: sgHSF1, 100 nM | 84.4 ± 6.2
sgRNA knockout: sgHSF1, 1000 nM | 94.4 ± 12
sgRNA knockout: sgHSF1, 10000 nM | 86.7 ± 11
sgRNA knockout: sgHSF2, 10 nM | 103 ± 6.8
sgRNA knockout: sgHSF2, 100 nM | 94.8 ± 18
sgRNA knockout: sgHSF2, 1000 nM | 95.6 ± 15
sgRNA knockout: sgHSF2, 10000 nM | 81.4 ± 10
sgRNA knockout: sgKEAP1, 10 nM | 145 ± 11
sgRNA knockout: sgKEAP1, 100 nM | 106 ± 13
sgRNA knockout: sgKEAP1, 1000 nM | 87.9 ± 4.4
sgRNA knockout: sgKEAP1, 10000 nM | 88.4 ± 4.4
sgRNA knockout: sgNFE2L2, 10 nM | 94.4 ± 8.6
sgRNA knockout: sgNFE2L2, 100 nM | 97.7 ± 22
sgRNA knockout: sgNFE2L2, 1000 nM | 90.3 ± 30
sgRNA knockout: sgNFE2L2, 10000 nM | 94.4 ± 3.2
sgRNA knockout: sgSLC35F2, 10 nM | 88.6 ± 5
sgRNA knockout: sgSLC35F2, 100 nM | 82 ± 28
sgRNA knockout: sgSLC35F2, 1000 nM | 95.2 ± 29
sgRNA knockout: sgSLC35F2, 10000 nM | 93.2 ± 20
sgRNA knockout: sgXBP1, 10 nM | 91 ± 0.21
sgRNA knockout: sgXBP1, 100 nM | 91.9 ± 13
sgRNA knockout: sgXBP1, 1000 nM | 114 ± 13
sgRNA knockout: sgXBP1, 10000 nM | 94.4 ± 21

O=C1NC(=O)[C@@H](c2cn3c4c(cccc24)CCC3)[C@@H]1c1c[nH]c2ccccc12 [Tivantinib]
Conditions | relative cell number
sgRNA knockout: sgATF3, 10 nM | 103 ± 1.7
sgRNA knockout: sgATF3, 100 nM | 87.2 ± 18
sgRNA knockout: sgATF3, 1000 nM | 38.4 ± 15
sgRNA knockout: sgATF3, 10000 nM | 34.7 ± 10
sgRNA knockout: sgATF4, 10 nM | 106 ± 44
sgRNA knockout: sgATF4, 100 nM | 55.3 ± 16
sgRNA knockout: sgATF4, 1000 nM | 27.1 ± 3.4
sgRNA knockout: sgATF4, 10000 nM | 16.3 ± 6.5
sgRNA knockout: sgATF6, 10 nM | 104 ± 4.5
sgRNA knockout: sgATF6, 100 nM | 99.1 ± 4.4
sgRNA knockout: sgATF6, 1000 nM | 39.1 ± 4.8
sgRNA knockout: sgATF6, 10000 nM | 31.2 ± 3.7
sgRNA knockout: sgATG7, 10 nM | 92.2 ± 1.2
sgRNA knockout: sgATG7, 100 nM | 78.4 ± 28
sgRNA knockout: sgATG7, 1000 nM | 34 ± 4
sgRNA knockout: sgATG7, 10000 nM | 27.4 ± 5.2
sgRNA knockout: sgERN1, 10 nM | 102 ± 13
sgRNA knockout: sgERN1, 100 nM | 76.2 ± 15
sgRNA knockout: sgERN1, 1000 nM | 48.1 ± 7.8
sgRNA knockout: sgERN1, 10000 nM | 30.6 ± 15
sgRNA knockout: sgHSF1, 10 nM | 99.4 ± 26
sgRNA knockout: sgHSF1, 100 nM | 101 ± 26
sgRNA knockout: sgHSF1, 1000 nM | 36.6 ± 7
sgRNA knockout: sgHSF1, 10000 nM | 21.5 ± 2.5
sgRNA knockout: sgHSF2, 10 nM | 94.6 ± 10
sgRNA knockout: sgHSF2, 100 nM | 64.3 ± 5.3
sgRNA knockout: sgHSF2, 1000 nM | 39.4 ± 5.5
sgRNA knockout: sgHSF2, 10000 nM | 29.3 ± 10
sgRNA knockout: sgKEAP1, 10 nM | 90.4 ± 19
sgRNA knockout: sgKEAP1, 100 nM | 85.7 ± 16
sgRNA knockout: sgKEAP1, 1000 nM | 40.2 ± 4.9
sgRNA knockout: sgKEAP1, 10000 nM | 23.8 ± 4.8
sgRNA knockout: sgNFE2L2, 10 nM | 97.9 ± 7.4
sgRNA knockout: sgNFE2L2, 100 nM | 88.2 ± 8.1
sgRNA knockout: sgNFE2L2, 1000 nM | 40.3 ± 5.4
sgRNA knockout: sgNFE2L2, 10000 nM | 30.4 ± 5.2
sgRNA knockout: sgSLC35F2, 10 nM | 82.2 ± 11
sgRNA knockout: sgSLC35F2, 100 nM | 93.4 ± 6.8
sgRNA knockout: sgSLC35F2, 1000 nM | 41.2 ± 2.3
sgRNA knockout: sgSLC35F2, 10000 nM | 26 ± 9.6
sgRNA knockout: sgXBP1, 10 nM | 101 ± 32
sgRNA knockout: sgXBP1, 100 nM | 98.32 ± 0.81
sgRNA knockout: sgXBP1, 1000 nM | 34.6 ± 2.2
sgRNA knockout: sgXBP1, 10000 nM | 21.3 ± 0.74

CCOC(=O)[C@@]1(CCCCCCOc2ccc(Cl)cc2)CO1 [Etomoxir]
Conditions | relative cell number
sgRNA knockout: sgATF3, 10 nM | 95.7 ± 43
sgRNA knockout: sgATF3, 100 nM | 104 ± 19
sgRNA knockout: sgATF3, 1000 nM | 92.6 ± 2.8
sgRNA knockout: sgATF3, 10000 nM | 79.7 ± 3.8
sgRNA knockout: sgATF4, 10 nM | 101 ± 11
sgRNA knockout: sgATF4, 100 nM | 161 ± 24
sgRNA knockout: sgATF4, 1000 nM | 152 ± 30
sgRNA knockout: sgATF4, 10000 nM | 113 ± 6.2
sgRNA knockout: sgATF6, 10 nM | 93 ± 2.2
sgRNA knockout: sgATF6, 100 nM | 94.6 ± 29
sgRNA knockout: sgATF6, 1000 nM | 98.3 ± 16
sgRNA knockout: sgATF6, 10000 nM | 98.3 ± 34
sgRNA knockout: sgATG7, 10 nM | 98.73 ± 0.22
sgRNA knockout: sgATG7, 100 nM | 99.8 ± 4.7
sgRNA knockout: sgATG7, 1000 nM | 101.2 ± 0.49
sgRNA knockout: sgATG7, 10000 nM | 79.73 ± 0.33
sgRNA knockout: sgERN1, 10 nM | 86.9 ± 13
sgRNA knockout: sgERN1, 100 nM | 106 ± 26
sgRNA knockout: sgERN1, 1000 nM | 77.8 ± 8.7
sgRNA knockout: sgERN1, 10000 nM | 90.6 ± 2.2
sgRNA knockout: sgHSF1, 10 nM | 97.6 ± 9.8
sgRNA knockout: sgHSF1, 100 nM | 111 ± 16
sgRNA knockout: sgHSF1, 1000 nM | 114 ± 1.3
sgRNA knockout: sgHSF1, 10000 nM | 91.5 ± 9
sgRNA knockout: sgHSF2, 10 nM | 97.4 ± 24
sgRNA knockout: sgHSF2, 100 nM | 107 ± 37
sgRNA knockout: sgHSF2, 1000 nM | 100 ± 20
sgRNA knockout: sgHSF2, 10000 nM | 95.8 ± 11
sgRNA knockout: sgKEAP1, 10 nM | 98.25 ± 0.36
sgRNA knockout: sgKEAP1, 100 nM | 93.5 ± 14
sgRNA knockout: sgKEAP1, 1000 nM | 99.5 ± 15
sgRNA knockout: sgKEAP1, 10000 nM | 93.4 ± 1.9
sgRNA knockout: sgNFE2L2, 10 nM | 95.4 ± 10
sgRNA knockout: sgNFE2L2, 100 nM | 125.3 ± 0.65
sgRNA knockout: sgNFE2L2, 1000 nM | 118.3 ± 0.64
sgRNA knockout: sgNFE2L2, 10000 nM | 98.4 ± 20
sgRNA knockout: sgSLC35F2, 10 nM | 97 ± 8.6
sgRNA knockout: sgSLC35F2, 100 nM | 83.8 ± 1.6
sgRNA knockout: sgSLC35F2, 1000 nM | 108 ± 5.4
sgRNA knockout: sgSLC35F2, 10000 nM | 101.8 ± 0.11
sgRNA knockout: sgXBP1, 10 nM | 93.14 ± 0.25
sgRNA knockout: sgXBP1, 100 nM | 106.2 ± 0.58
sgRNA knockout: sgXBP1, 1000 nM | 98.2 ± 13
sgRNA knockout: sgXBP1, 10000 nM | 77.3 ± 15
